Laboratory results from the supplement of paper PMC10849652.
This is one part of the list.

The chains behind the UniProt entries cited, without tags or fusion partners. Where a name states a change or a piece, a line headed by the entry shows the natural chain unless it says otherwise.
UniProt P49757: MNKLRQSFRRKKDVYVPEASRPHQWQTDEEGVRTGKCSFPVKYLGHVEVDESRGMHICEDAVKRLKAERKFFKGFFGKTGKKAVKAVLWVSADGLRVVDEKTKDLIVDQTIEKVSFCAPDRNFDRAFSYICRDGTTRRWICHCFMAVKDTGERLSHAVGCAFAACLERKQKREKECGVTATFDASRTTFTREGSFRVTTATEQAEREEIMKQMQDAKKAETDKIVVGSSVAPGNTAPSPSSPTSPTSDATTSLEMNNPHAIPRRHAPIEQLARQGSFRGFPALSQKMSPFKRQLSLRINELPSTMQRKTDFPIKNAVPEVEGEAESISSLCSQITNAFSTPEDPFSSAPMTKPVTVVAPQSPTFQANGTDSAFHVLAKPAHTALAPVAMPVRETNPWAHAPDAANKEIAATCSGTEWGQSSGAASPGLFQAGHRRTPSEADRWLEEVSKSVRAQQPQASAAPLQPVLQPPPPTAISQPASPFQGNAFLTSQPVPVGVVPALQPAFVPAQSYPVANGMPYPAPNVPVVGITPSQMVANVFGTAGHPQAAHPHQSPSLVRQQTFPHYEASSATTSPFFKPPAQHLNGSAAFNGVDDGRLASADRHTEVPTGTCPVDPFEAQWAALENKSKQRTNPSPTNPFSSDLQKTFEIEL
UniProt Q9H1E3: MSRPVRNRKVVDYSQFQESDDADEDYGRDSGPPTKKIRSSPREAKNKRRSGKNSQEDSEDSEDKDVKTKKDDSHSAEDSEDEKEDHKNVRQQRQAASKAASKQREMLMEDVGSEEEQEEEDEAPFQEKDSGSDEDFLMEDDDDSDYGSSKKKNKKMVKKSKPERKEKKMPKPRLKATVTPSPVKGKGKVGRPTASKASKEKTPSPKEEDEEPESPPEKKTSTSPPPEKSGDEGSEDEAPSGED
UniProt Q9NRP0: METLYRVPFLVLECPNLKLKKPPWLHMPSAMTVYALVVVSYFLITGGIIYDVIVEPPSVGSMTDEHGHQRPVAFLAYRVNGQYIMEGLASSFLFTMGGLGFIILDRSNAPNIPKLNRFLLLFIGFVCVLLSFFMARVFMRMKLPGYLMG
UniProt Q8TEM1: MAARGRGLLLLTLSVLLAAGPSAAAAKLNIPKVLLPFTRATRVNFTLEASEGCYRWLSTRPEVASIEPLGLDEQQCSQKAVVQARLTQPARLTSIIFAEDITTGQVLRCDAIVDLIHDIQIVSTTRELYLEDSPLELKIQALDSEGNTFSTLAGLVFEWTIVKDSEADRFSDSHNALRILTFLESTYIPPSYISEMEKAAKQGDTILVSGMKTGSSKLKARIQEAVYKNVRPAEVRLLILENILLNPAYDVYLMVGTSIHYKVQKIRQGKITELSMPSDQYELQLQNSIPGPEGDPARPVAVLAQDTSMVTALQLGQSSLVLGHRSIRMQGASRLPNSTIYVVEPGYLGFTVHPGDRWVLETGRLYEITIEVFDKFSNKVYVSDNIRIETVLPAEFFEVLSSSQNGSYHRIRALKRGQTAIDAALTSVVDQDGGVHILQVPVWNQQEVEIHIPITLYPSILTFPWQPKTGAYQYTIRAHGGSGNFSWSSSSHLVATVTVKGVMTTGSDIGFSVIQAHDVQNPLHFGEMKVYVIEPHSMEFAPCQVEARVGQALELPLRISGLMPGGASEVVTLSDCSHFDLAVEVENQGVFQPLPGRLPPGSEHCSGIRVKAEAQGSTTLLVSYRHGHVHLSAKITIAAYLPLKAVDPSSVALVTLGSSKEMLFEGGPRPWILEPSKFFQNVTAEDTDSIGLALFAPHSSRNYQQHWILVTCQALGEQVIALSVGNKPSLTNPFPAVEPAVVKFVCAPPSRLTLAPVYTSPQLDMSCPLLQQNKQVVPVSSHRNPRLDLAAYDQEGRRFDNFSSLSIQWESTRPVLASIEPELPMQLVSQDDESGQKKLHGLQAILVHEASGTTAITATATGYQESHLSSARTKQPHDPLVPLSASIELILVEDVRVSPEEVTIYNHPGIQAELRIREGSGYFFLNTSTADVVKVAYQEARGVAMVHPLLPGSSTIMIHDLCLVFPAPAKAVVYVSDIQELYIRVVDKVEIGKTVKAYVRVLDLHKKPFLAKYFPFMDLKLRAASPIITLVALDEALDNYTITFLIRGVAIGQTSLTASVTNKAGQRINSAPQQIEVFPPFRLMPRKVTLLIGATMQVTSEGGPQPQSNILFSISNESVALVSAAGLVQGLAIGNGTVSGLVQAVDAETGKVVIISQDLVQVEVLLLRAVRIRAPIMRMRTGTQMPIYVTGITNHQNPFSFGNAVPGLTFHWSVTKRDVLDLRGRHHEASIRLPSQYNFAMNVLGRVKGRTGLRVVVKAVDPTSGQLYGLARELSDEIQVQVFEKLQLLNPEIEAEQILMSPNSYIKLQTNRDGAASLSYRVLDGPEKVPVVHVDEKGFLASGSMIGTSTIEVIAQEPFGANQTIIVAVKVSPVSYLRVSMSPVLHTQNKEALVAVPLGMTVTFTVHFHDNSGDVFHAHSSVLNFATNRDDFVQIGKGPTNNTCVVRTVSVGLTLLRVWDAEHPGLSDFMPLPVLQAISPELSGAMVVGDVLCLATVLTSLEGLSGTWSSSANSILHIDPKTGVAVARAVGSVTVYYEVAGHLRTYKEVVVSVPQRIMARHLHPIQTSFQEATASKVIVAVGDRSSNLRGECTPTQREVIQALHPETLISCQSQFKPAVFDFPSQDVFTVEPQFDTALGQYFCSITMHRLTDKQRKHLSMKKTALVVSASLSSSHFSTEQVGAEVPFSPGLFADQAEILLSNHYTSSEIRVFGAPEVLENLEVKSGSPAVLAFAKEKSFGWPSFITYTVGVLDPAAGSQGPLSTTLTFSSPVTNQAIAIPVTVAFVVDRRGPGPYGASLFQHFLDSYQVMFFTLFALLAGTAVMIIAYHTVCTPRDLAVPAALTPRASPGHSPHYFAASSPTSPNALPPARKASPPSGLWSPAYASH
UniProt Q9H4L5: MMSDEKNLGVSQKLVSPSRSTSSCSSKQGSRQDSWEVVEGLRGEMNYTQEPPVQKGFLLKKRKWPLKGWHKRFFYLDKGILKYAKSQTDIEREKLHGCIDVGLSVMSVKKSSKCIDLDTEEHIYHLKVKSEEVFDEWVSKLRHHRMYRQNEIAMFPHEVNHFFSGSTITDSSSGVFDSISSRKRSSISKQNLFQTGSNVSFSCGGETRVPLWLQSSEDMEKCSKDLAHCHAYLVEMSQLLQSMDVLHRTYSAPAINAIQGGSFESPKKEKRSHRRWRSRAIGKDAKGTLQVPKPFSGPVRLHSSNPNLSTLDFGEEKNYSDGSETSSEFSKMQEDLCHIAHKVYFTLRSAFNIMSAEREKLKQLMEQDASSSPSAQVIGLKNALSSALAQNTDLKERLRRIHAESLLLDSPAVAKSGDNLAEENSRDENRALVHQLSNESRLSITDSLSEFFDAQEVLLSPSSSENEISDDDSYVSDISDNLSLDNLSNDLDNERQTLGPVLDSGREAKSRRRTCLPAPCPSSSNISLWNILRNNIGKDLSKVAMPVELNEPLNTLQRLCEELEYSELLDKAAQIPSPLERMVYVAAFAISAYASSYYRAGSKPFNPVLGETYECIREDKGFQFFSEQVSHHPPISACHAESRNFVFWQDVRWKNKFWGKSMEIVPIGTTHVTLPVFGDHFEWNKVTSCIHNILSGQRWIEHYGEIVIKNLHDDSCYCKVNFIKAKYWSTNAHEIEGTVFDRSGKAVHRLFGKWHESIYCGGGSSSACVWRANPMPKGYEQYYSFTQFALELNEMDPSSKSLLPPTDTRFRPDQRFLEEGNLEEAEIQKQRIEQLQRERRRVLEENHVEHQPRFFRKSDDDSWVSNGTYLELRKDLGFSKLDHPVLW
UniProt Q96BN8, whole entry, looked up: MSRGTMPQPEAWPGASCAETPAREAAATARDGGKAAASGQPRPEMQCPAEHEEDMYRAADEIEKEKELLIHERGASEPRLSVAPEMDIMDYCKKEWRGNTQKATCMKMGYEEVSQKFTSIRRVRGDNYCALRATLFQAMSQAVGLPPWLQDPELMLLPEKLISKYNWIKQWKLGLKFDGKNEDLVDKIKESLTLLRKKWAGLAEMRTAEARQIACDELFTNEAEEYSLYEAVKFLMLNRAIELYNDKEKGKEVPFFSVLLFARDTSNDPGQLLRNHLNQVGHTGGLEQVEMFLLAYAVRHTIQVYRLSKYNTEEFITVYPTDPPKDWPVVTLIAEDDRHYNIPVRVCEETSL
UniProt Q8N6M0: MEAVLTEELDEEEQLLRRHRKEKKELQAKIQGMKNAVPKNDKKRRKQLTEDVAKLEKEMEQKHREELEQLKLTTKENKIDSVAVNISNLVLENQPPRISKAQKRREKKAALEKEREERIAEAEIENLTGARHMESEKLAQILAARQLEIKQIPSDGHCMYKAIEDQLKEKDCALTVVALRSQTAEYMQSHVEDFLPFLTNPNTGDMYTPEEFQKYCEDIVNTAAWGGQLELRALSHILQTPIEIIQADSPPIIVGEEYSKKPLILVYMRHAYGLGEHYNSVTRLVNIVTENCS
UniProt Q9H4B0: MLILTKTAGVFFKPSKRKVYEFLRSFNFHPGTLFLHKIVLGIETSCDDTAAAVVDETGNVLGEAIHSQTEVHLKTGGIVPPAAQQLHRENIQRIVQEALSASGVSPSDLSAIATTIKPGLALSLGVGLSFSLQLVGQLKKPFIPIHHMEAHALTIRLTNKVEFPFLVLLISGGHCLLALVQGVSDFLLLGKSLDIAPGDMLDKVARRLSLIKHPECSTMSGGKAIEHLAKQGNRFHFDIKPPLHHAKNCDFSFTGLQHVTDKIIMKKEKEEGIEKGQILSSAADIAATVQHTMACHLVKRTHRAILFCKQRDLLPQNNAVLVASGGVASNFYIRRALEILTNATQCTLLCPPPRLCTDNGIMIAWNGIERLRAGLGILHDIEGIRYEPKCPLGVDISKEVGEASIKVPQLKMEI
UniProt O43913: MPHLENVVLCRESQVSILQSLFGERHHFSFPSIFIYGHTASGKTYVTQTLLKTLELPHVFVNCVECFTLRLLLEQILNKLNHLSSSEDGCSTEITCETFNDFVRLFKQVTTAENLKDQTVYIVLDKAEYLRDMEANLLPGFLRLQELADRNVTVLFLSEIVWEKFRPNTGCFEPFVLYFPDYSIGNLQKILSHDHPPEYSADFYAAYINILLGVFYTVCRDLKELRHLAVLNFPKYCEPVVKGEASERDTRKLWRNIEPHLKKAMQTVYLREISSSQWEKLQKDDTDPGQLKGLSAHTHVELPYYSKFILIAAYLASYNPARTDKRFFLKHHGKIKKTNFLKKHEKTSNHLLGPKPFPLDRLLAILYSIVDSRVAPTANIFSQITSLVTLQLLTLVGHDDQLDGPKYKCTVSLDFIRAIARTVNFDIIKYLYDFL
UniProt Q9BZF1: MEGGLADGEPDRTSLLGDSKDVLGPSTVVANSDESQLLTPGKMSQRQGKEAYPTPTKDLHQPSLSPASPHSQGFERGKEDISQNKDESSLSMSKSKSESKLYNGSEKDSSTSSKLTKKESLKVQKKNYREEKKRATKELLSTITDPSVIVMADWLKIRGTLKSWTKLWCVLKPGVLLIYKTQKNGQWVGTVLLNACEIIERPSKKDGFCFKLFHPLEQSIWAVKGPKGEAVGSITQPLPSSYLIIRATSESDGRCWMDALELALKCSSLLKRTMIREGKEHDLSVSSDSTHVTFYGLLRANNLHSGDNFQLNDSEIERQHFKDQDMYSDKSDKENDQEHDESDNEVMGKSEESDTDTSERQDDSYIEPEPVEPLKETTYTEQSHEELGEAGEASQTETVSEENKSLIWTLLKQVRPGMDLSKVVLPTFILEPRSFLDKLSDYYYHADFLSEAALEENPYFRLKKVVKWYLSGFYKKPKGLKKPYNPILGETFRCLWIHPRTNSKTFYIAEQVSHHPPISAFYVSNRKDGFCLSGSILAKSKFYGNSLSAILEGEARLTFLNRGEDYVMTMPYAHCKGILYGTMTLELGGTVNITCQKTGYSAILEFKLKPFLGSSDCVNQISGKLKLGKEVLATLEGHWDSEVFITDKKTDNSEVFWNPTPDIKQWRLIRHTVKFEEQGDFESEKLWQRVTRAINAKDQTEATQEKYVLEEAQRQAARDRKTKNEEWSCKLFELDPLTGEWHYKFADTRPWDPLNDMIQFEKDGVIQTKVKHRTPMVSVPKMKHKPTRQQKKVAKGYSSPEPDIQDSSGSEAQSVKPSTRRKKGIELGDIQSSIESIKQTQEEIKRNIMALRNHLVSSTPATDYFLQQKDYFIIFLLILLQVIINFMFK
UniProt Q9NXX6: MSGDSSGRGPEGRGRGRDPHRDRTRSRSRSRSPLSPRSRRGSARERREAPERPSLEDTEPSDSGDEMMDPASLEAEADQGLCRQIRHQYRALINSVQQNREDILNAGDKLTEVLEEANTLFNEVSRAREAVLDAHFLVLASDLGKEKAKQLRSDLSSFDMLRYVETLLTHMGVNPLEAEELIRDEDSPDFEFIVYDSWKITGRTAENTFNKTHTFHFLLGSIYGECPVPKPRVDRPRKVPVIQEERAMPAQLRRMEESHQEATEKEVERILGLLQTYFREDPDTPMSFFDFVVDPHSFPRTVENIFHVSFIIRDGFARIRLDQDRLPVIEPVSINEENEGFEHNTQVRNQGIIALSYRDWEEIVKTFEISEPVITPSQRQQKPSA

Experiments:
Experiment in all cases: log2 fold change, soluble protein after heating vs DMSO (PISA); higher = thermal stabilisation; K562 cells, 10 uM, 30 min; active = over 0.2 and 3.5 SD of the protein, either way, in both replicates (recomputed)
saracatinib = compound: CN1CCN(CCOc2cc(OC3CCOCC3)c3c(Nc4c(Cl)ccc5c4OCO5)ncnc3c2)CC1 [saracatinib]
Summary of the method: (§1)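 Aliquots of K562 cells (2×10^6 cells/mL) treated with 10 μM compound for 30 min were heated for 3 min over 48°C-58°C. After pooling and extraction in PBS with 0.5% NP-40 at 4°C, soluble protein from a 21,000xg, 90 min spin was quantified by TMTpro 16plex LC-MS/MS with channel sums equalised. Thermal stability is expressed against control samples, from duplicates, as a log2 fold change.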

sotrastaurin = compound: CN1CCN(c2nc(C3=C(c4c[nH]c5ccccc45)C(=O)NC3=O)c3ccccc3n2)CC1 [sotrastaurin]
Summary of the method: as §1

Tubastatin A = compound: CN1CCc2c(c3ccccc3n2Cc2ccc(C(=O)NO)cc2)C1 [Tubastatin A]
Summary of the method: as §1

[1] = compound: CNC(=O)C1=CC=CC=C1NC2=NC(=NC=C2Cl)NC3=C(C=C(C=C3)N4CCOCC4)OC
Summary of the method: as §1

defactinib = compound: CNC(=O)c1ccc(Nc2ncc(C(F)(F)F)c(NCc3nccnc3N(C)S(C)(=O)=O)n2)cc1 [defactinib]
Summary of the method: as §1

rucaparib = compound: CNCc1ccc(-c2[nH]c3cc(F)cc4c3c2CCNC4=O)cc1 [rucaparib]
Summary of the method: as §1

[2] = compound: CNc1nc(-c2ccc3c(N)n[nH]c3c2)cc(N2C[C@@H](C(=O)NC3CCCCC3)CC[C@H]2C)n1
Summary of the method: as §1

encorafenib = compound: COC(=O)N[C@@H](C)CNc1nccc(-c2cn(C(C)C)nc2-c2cc(Cl)cc(NS(C)(=O)=O)c2F)n1 [encorafenib]
Summary of the method: as §1

[3] = compound: COC(=O)[C@H](CCSC)NC(=O)C1=C(C=C(C=C1)NC[C@H](CS)N)C2=CC=CC=C2
Summary of the method: as §1

alvocidib = compound: CN1CC[C@H](c2c(O)cc(O)c3c(=O)cc(-c4ccccc4Cl)oc23)[C@H](O)C1 [alvocidib]
Summary of the method: as §1

Measured: log2 fold change

OXSM (UniProt Q9NWU1)
inactive: saracatinib 0.095 | sotrastaurin 0.067 | Tubastatin A -0.01 | [1] 0.038 | defactinib -0.059 | rucaparib -0.018 | [2] -0.033 | encorafenib -0.007 | [3] -0.019

OXSR1 (UniProt O95747)
inactive: saracatinib -0.048 | sotrastaurin 0.004 | Tubastatin A 0.038 | [1] -0.061 | defactinib -0.093 | rucaparib 0.001 | [2] 0.033 | encorafenib 0.042 | [3] -0.051

NUP85 (UniProt Q9BW27)
inactive: saracatinib 0.027 | sotrastaurin -0.026 | Tubastatin A -0.001 | [1] -0.021 | defactinib -0.097 | rucaparib -0.047 | [2] -0.034 | encorafenib 0.025 | [3] 0.003

NUMB (UniProt P49757)
active: sotrastaurin -0.266
inactive: saracatinib 0.033 | Tubastatin A -0.014 | [1] -0.027 | defactinib -0.044 | rucaparib 0.01 | [2] 0.065 | encorafenib 0.081 | [3] 0

NSMCE2 (UniProt Q96MF7)
inactive: saracatinib -0.019 | sotrastaurin -0.095 | Tubastatin A 0 | [1] 0.031 | defactinib -0.06 | rucaparib 0.076 | [2] -0.076 | encorafenib -0.001 | [3] 0.025

NSUN5 isoform 2 (UniProt Q96P11)
inactive: saracatinib 0.091 | sotrastaurin -0.005 | alvocidib 0.063 | Tubastatin A 0.082 | [1] -0.029 | defactinib -0.007 | rucaparib -0.026 | [2] 0.099 | encorafenib 0.035 | [3] 0.078

NUCKS1 (UniProt Q9H1E3)
inactive: saracatinib 0.006 | sotrastaurin 0.075 | Tubastatin A -0.006 | [1] -0.167 | defactinib 0.048 | rucaparib 0.027 | [2] -0.071 | encorafenib -0.068 | [3] -0.006

OAT (UniProt P04181)
inactive: saracatinib -0.002 | sotrastaurin -0.016 | Tubastatin A 0.013 | [1] 0.084 | defactinib -0.058 | rucaparib -0.047 | [2] -0.04 | encorafenib -0.061 | [3] 0.024

NUP98 (UniProt P52948)
inactive: saracatinib -0.019 | sotrastaurin -0.072 | Tubastatin A 0.041 | [1] 0.018 | defactinib -0.12 | rucaparib 0.063 | [2] -0.037 | encorafenib 0.039 | [3] -0.053

OSTM1 (UniProt Q86WC4)
inactive: saracatinib -0.038 | sotrastaurin 0.007 | Tubastatin A 0.031 | [1] 0.19 | defactinib -0.048 | rucaparib -0.015 | [2] -0.086 | encorafenib 0.022 | [3] 0.002

P4HA1 isoform 2 (UniProt P13674)
inactive: saracatinib -0.133 | sotrastaurin 0.039 | alvocidib 0.069 | Tubastatin A 0.004 | defactinib 0.027 | rucaparib 0.043 | [2] 0.095 | encorafenib 0.019 | [3] -0.143

OSTC (UniProt Q9NRP0)
inactive: saracatinib 0.111 | sotrastaurin -0.05 | Tubastatin A -0.174 | [1] 0.03 | defactinib -0.053 | rucaparib -0.036 | [2] -0.004 | encorafenib 0.047 | [3] -0.046

NUP210 (UniProt Q8TEM1)
inactive: saracatinib 0.017 | sotrastaurin -0.019 | Tubastatin A -0.003 | [1] -0.147 | defactinib -0.021 | rucaparib -0.039 | [2] -0.07 | encorafenib 0.027 | [3] -0.035

Looked up one by one from above, 2 records:
P4HA1 isoform 2 (UniProt P13674)
inactive: saracatinib -0.133 | sotrastaurin 0.039 | alvocidib 0.069 | Tubastatin A 0.004 | defactinib 0.027 | rucaparib 0.043 | [2] 0.095 | encorafenib 0.019 | [3] -0.143

NUP210 (UniProt Q8TEM1)
inactive: saracatinib 0.017 | sotrastaurin -0.019 | Tubastatin A -0.003 | [1] -0.147 | defactinib -0.021 | rucaparib -0.039 | [2] -0.07 | encorafenib 0.027 | [3] -0.035

Further entries.

NUP160 (UniProt Q12769)
inactive: saracatinib 0.155 | sotrastaurin -0.141 | Tubastatin A 0 | [1] 0.004 | defactinib -0.11 | rucaparib 0.019 | [2] -0.018 | encorafenib 0.038 | [3] 0.003

NT5DC1 (UniProt Q5TFE4)
inactive: saracatinib -0.012 | sotrastaurin 0.026 | Tubastatin A 0 | [1] 0.115 | defactinib -0.004 | rucaparib -0.057 | [2] -0.058 | encorafenib -0.029 | [3] 0.037

OSBPL3 (UniProt Q9H4L5)
inactive: saracatinib -0.284 | sotrastaurin -0.414 | Tubastatin A 0.219 | [1] 0.312 | defactinib 0.127 | rucaparib 0.518 | [2] 0.122 | encorafenib 0.006 | [3] -0.11

OTULIN (UniProt Q96BN8)
inactive: saracatinib -0.029 | sotrastaurin -0.044 | Tubastatin A 0.019 | [1] -0.009 | defactinib -0.029 | rucaparib 0.02 | [2] -0.053 | encorafenib -0.012 | [3] -0.012

PAAF1 (UniProt Q9BRP4)
inactive: saracatinib 0.056 | sotrastaurin 0.016 | Tubastatin A -0.008 | [1] -0.006 | defactinib -0.034 | rucaparib 0.012 | [2] -0.008 | encorafenib -0.004 | [3] 0.004

NUDT16 (UniProt Q96DE0)
inactive: saracatinib 0.063 | sotrastaurin -0.031 | Tubastatin A 0.009 | [1] -0.057 | defactinib -0.024 | rucaparib 0.009 | [2] -0.004 | encorafenib -0.017 | [3] -0.05

OXA1L (UniProt Q15070)
inactive: saracatinib 0.018 | sotrastaurin 0.003 | Tubastatin A -0.036 | [1] 0.004 | defactinib 0.005 | rucaparib -0.029 | [2] -0.054 | encorafenib -0.027 | [3] 0.031

NUP93 (UniProt Q8N1F7)
inactive: saracatinib -0.059 | sotrastaurin -0.144 | alvocidib -0.057 | Tubastatin A 0.02 | [1] -0.009 | defactinib -0.052 | rucaparib 0.087 | [2] 0.002 | encorafenib 0.071 | [3] -0.042

OTUD6B (UniProt Q8N6M0)
inactive: saracatinib -0.009 | sotrastaurin -0.035 | Tubastatin A -0.007 | [1] -0.008 | defactinib -0.138 | rucaparib 0.019 | [2] 0.001 | encorafenib 0.122 | [3] -0.055

NUMA1 (UniProt Q14980)
inactive: saracatinib -0.069 | sotrastaurin -0.235 | Tubastatin A 0.14 | [1] -0.057 | defactinib -0.017 | rucaparib 0.118 | [2] 0.055 | encorafenib 0.174 | [3] -0.009

OSGEPL1 (UniProt Q9H4B0)
inactive: saracatinib 0.112 | sotrastaurin 0.022 | alvocidib -0.015 | [1] 0.089 | defactinib -0.258 | [2] 0.069 | [3] -0.254

ORC3 isoform 2 (UniProt Q9UBD5)
inactive: saracatinib 0.001 | sotrastaurin 0.011 | Tubastatin A 0.006 | [1] -0.078 | defactinib -0.288 | rucaparib 0 | [2] 0.014 | encorafenib 0.288 | [3] 0.06

ORC5 (UniProt O43913)
inactive: saracatinib -0.081 | sotrastaurin 0.149 | Tubastatin A 0.093 | [1] -0.097 | defactinib -0.182 | rucaparib 0.094 | [2] -0.009 | encorafenib 0.033 | [3] -0.05

NUDT1 (UniProt P36639)
inactive: saracatinib 0.068 | sotrastaurin 0.043 | Tubastatin A 0.193 | [1] 0.05 | defactinib 0.019 | rucaparib 0.416 | [2] 0.196 | encorafenib -0.03 | [3] -0.074

OSBPL8 (UniProt Q9BZF1)
active: [2] 0.488
inactive: saracatinib -0.175 | sotrastaurin -0.054 | Tubastatin A 0.078 | [1] 0.11 | defactinib 0.025 | rucaparib 0.232 | encorafenib 0.167 | [3] -0.078

NSMCE4A (UniProt Q9NXX6)
inactive: saracatinib 0.109 | sotrastaurin 0.015 | Tubastatin A 0.05 | [1] -0.112 | defactinib -0.086 | rucaparib 0 | [2] -0.114 | encorafenib -0.064 | [3] -0.002

NUP42 (UniProt O15504)
inactive: saracatinib -0.064 | sotrastaurin 0.007 | alvocidib 0.221 | Tubastatin A 0.036 | [1] 0.098 | rucaparib 0.398 | [2] 0.07 | encorafenib 0.257

OPHN1 (UniProt O60890)
inactive: saracatinib -0.033 | sotrastaurin 0.011 | Tubastatin A -0.008 | [1] -0.036 | rucaparib -0.011 | [2] -0.01 | encorafenib 0.038
